The assay can be described thus: qHTS Assay for Modulators of Lamin A Splicing. The conditions noted are these: HeLa LMNA splicing GFP/RFP minigene ratio, 48 h. Summed up: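 S3 HeLa cells stably expressing lamin A-EGFP splicing minigene plus DsRed2, 600 cells/well, 48 h compound exposure at 37C. Laser-scanning cytometry; analysed as GFP (500-530 nm)/RFP (575-640 nm) total intensity ratio; 0.5% DMSO vehicle.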

Where [1] appears, read: measured here: RFP viability control channel.
[2] abbreviates: measured here: GFP splicing reporter channel.

Some of the results follow. Shown are side measurements of this screen, not its main read-out; they come without a call. Compounds called inactive in the main read-out are mostly missing here. The note in brackets gives the kind of curve behind each potency; many fits are weak.

Take `CSc1ccc(CCNC(=O)c2ccc(CS(=O)(=O)c3ccc(Br)cc3)o2)cc1`: the AC50 under setting [1] was 1 µM [falling, full curve].

On to `COc1ccc2cc(C#N)c(SCC(=O)NNC(=O)Cc3ccccc3)nc2c1`, for which the AC50 under setting [1] was 35.5 µM [falling, single point]. As for `Cc1nn(Cc2c(Cl)cccc2Cl)c(C)c1NC(=O)c1cc(C(C)C)on1`, the concentration at half-maximal activity (AC50) runs as follows: under setting [2], 11.2 µM [falling, partial curve]; under setting [1], 35.5 µM [falling, single point].

Regarding `Nc1nc(SCC(=O)Nc2cccc(Oc3ccccc3)c2)n[nH]1`, under setting [1], the AC50 was 31.6 µM [rising, single point]. As to `O=C(CN1C(=O)c2ccccc2S1(=O)=O)NC(Nc1ccccc1F)C(Cl)(Cl)Cl` (configuration not stated), the AC50 under setting [2] was 0.0447 µM [falling, full curve, poor fit] and the AC50 under setting [1] was 0.0501 µM [falling, full curve]. Consider `Fc1ccc(CSc2nnc3ccc(-c4ccncc4)nn23)cc1`, for which the AC50 under setting [2] was 0.00891 µM [rising, full curve, poor fit].

For the compound `CCc1ccc2nc(SCC(=O)N(CC)CC)c(C#N)cc2c1`, under setting [1], the half-maximal activity concentration (AC50) is 17.8 µM [rising, single point]. The same measure, in the same setting: the same measure for `O=C1N(Cc2cccc(C(F)(F)F)c2)c2ccccc2S(=O)(=O)N1c1cccc(Cl)c1`: 2 µM [rising, single point]. For the compound `COc1ccc(CNC(=O)c2cc3cc(S(=O)(=O)N4CCCCC4)ccc3n2C)c(OC)c1`, the AC50 under setting [2] was 0.0224 µM [rising, full curve, poor fit].

Take `Nc1c(C(=O)C2CC2)sc2nc3c(cc12)CCC3`: the concentration at half-maximal activity (AC50) under setting [1] is 0.794 µM [falling, partial curve, poor fit]. On to `COc1ccc(NS(=O)(=O)c2cc3c(cc2C)NC(=O)CO3)c(OC)c1`, for which, under setting [2], the AC50 was 6.31 µM [rising, partial curve, poor fit]. `CCc1ccc(-c2nc(-c3ccncc3)no2)cc1`: the AC50 by setting is: under setting [2], 12.6 µM [rising, partial curve, poor fit]; under setting [1], 10 µM [rising, partial curve, poor fit]. With `O=C(c1ccco1)c1cn[nH]c1-c1ccc(Cl)cc1O`, the half-maximal activity concentration (AC50) under setting [1] is 12.6 µM [rising, partial curve, poor fit]. On the same count and under the same terms, then `CCc1ccc(NC(=O)c2ccc(C3SCC(=O)N3CCc3ccccc3)cc2)cc1` (configuration not stated), with 7.94 µM [rising, partial curve]. Take `C/C(=N\NC(=O)c1ccc(C)cc1C)c1ccc2c(c1)Nc1ccccc1S2`: the concentration at half-maximal activity (AC50) runs as follows: under setting [2], 15.8 µM [rising, single point]; under setting [1], 17.8 µM [rising, single point].

For `Cc1ccc(C(=O)c2cc3c(cc2N)OCCO3)cc1`, under setting [1], the AC50 is 31.6 µM [rising, partial curve].

Regarding `CN(C)c1nc(N)c(C(=O)N=C(N)N)nc1Cl`, the AC50 under setting [1] is 0.000891 µM [falling, full curve, poor fit]. For the compound `Cc1nnsc1C(=O)NNc1ccc(Cl)cc1`, the AC50 was 11.2 µM [rising, partial curve] under setting [2] and 12.6 µM [rising, partial curve] under setting [1].

Take `Cn1cc(-c2nc3cnc(N4CCNCC4)nc3n(Cc3ccc(F)cc3)c2=O)c2ccccc21`: the AC50 under setting [2] is 35.5 µM [falling, single point] and the AC50 under setting [1] is 35.5 µM [falling, single point]. For `O=C(COC(=O)c1cccc(S(=O)(=O)N2CCOCC2)c1)Nc1ccc2c(c1)OCO2`, under setting [1], the AC50 was 0.0447 µM [falling, full curve, poor fit]. For the compound `O=C(Nc1ccc2c(c1)OCO2)C1CCCCN1S(=O)(=O)c1ccc(F)cc1` (configuration not stated), the AC50 is 8.91 µM [rising, partial curve] under setting [2] and 10 µM [rising, partial curve] under setting [1].

In the case of `CC(C)c1cnc2c(c1SCc1cccc(F)c1)c(=O)n(C)c(=O)n2C`, the concentration at half-maximal activity (AC50) under setting [2] was 2.82 µM [rising, full curve, poor fit]. Regarding `CCCOC(=O)CSC1=C(C#N)C(c2ccc3c(c2)OCO3)CC(=O)N1` (configuration not stated), the AC50 under setting [1] was 22.4 µM [rising, single point]. On the same count and under the same terms, the same measure for `Cc1c(C(=O)Nc2cccc(Cl)c2)c2ccccn2c1CCc1ccncc1`: 14.1 µM [rising, single point].

For `CN1C(=S)SC(N(O)C(=O)Nc2ccc(Cl)c(Cl)c2)C1(C)C` (configuration not stated), the half-maximal activity concentration (AC50) runs as follows: under setting [2], 28.2 µM [rising, single point]; under setting [1], 35.5 µM [rising, single point]. On to `O=C(/C=C/c1ccc2c(c1)OCO2)NCCSCc1c(Cl)cccc1Cl`, for which the AC50 under setting [1] is 10 µM [rising, single point].

As to `Cc1ccccc1-c1nc(CS(=O)(=O)CC(=O)Nc2cc(F)ccc2F)c(C)o1`, under setting [1], the AC50 was 12.6 µM [rising, partial curve].

On to `COc1ccc(-n2c(=O)c3ccccc3n(CC(=O)OCc3ccccc3)c2=O)cc1OC`, for which, under setting [1], the AC50 was 1.26 µM [falling, full curve, poor fit]. Still for that read-out and setting: then `CN(C)C(=S)SCC(=O)NC(=O)NC(C)(C)C`, with 0.355 µM [falling, partial curve, poor fit]. Same read-out and setting: the same measure for `COc1ccc(NC(=O)Nc2ccc3oc(C)nc3c2)cc1`: 7.94 µM [falling, partial curve, poor fit]; for `Cc1cc(Cl)ccc1OC(C)C(=O)NCCc1ccc2c(c1)OCCO2` (configuration not stated): 31.6 µM [rising, single point]. Turning to `Fc1cccc(-c2cc3nc4c(c(N5CCOCC5)n3n2)CCCC4)c1`, the half-maximal activity concentration (AC50) is 25.1 µM [rising, single point] under setting [2] and 35.5 µM [rising, single point] under setting [1]. Turning to `O=c1[nH]c(=O)n([C@H]2C[C@H](O)[C@@H](CO)O2)cc1C(F)(F)F`, the AC50 is, setting by setting: under setting [2], 3.98 µM [rising, full curve, poor fit]; under setting [1], 2 µM [rising, full curve]. Consider `CCc1ccc(OCC(=O)N/N=C/c2cc([N+](=O)[O-])ccc2N2CCCCCC2)cc1`, for which the half-maximal activity concentration (AC50) under setting [1] is 12.6 µM [rising, single point]. As for `CN(C)Cc1ccccc1-c1nc(NCc2cccs2)c2ccccc2n1`, under setting [2], the AC50 is 11.2 µM [falling, partial curve]. For the compound `O=C(CN1CCOCC1)Nc1c(C(=O)C2CC2)oc2ccccc12`, under setting [2], the AC50 was 0.355 µM [rising, full curve, poor fit].

Regarding `Cc1ccc(Cn2ccc(-c3cnc(-c4ccccc4)s3)n2)cc1`, under setting [1], the AC50 was 10 µM [rising, single point]. Still for that read-out and setting: then `COc1ccccc1CC1S/C(=N/N=C/c2ccco2)NC1=O` (configuration not stated), with 1.26 µM [rising, partial curve, poor fit]; and `O=C(CSc1ccc2c(c1)OCCO2)NCCc1ccc(Cl)cc1Cl`, with 7.08 µM [rising, partial curve, poor fit]. In the case of `COc1ccc(CNC(=O)c2sc3nc4c(c(C(F)(F)F)c3c2N)CCC4)cc1OC`, the AC50 was 11.2 µM [rising, partial curve, poor fit] under setting [2] and 10 µM [rising, partial curve] under setting [1]. For the compound `CCCCNc1oc(-c2cccs2)nc1S(=O)(=O)c1ccccc1`, the AC50 runs as follows: under setting [2], 31.6 µM [rising, single point]; under setting [1], 15.8 µM [rising, single point].

For `CC(C)C(=O)Nc1ccc2c3c(cccc13)CC2`, the AC50 under setting [1] is 8.91 µM [rising, partial curve, poor fit]. As for `CC1CCN(c2oc(-c3ccc(COc4ccccc4)o3)nc2C#N)CC1`, under setting [2], the AC50 was 0.158 µM [rising, full curve, poor fit]. On to `O=C(NCC(c1cccs1)S(=O)(=O)c1cccs1)c1ccc(Cl)cc1` (configuration not stated), for which the half-maximal activity concentration (AC50) reads like this: under setting [2], 3.16 µM [falling, full curve, poor fit]; under setting [1], 2.82 µM [falling, full curve]. For the compound `CCc1nc(C)cn1S(=O)(=O)c1cc(C)c(OC)c(C)c1C`, the AC50 under setting [1] is 6.31 µM [rising, partial curve].

Turning to `CC(=O)c1c(C)[nH]c(C(=O)NCCC2=CCCCC2)c1C`, the AC50 under setting [1] is 11.2 µM [rising, partial curve].

On to `Cc1ccc(-n2c(SCC(=O)NCc3ccccc3)nc3n[nH]c(C)c3c2=N)cc1Cl`, for which, under setting [1], the AC50 was 0.0631 µM [falling, full curve, poor fit]. As for `O=C(Nc1cccnc1)C1CCN(S(=O)(=O)c2cccs2)CC1`, under setting [2], the AC50 was 0.00501 µM [falling, full curve, poor fit]. For the compound `Cc1ccc(/C=C/C(=O)Nc2ccc(S(N)(=O)=O)cc2)o1`, the AC50 under setting [1] was 0.2 µM [rising, full curve, poor fit]. Turning to `Cn1c[n+](C)cc1-c1ccc(/C(N)=N/O)cc1`, the AC50 under setting [1] is 1.58 µM [falling, full curve, poor fit]. `COc1ccc(NC(=O)C(c2ccccc2)c2ccccc2)cn1`: the AC50 under setting [2] was 5.62 µM [rising, partial curve, poor fit]. With `Oc1c(C(c2ccc(F)cc2)N2CCc3ccccc3C2)sc2ncnn12` (configuration not stated), the half-maximal activity concentration (AC50) under setting [1] was 12.6 µM [rising, single point]. As to `CCOC(=O)Cc1csc(NC(=O)c2ccc(S(=O)(=O)N3CCCC3)cc2)n1`, under setting [1], the AC50 was 11.2 µM [rising, partial curve].

For the compound `CC(C)OC(=O)c1cccnc1N1CCN(c2ccc(F)cc2)CC1`, the AC50 under setting [1] is 3.98 µM [falling, single point].

As to `Cc1csc2ncnc(NNC(=O)c3ccc(Cl)cc3)c12`, the AC50 is 11.2 µM [falling, single point] under setting [2] and 1.41 µM [falling, partial curve, poor fit] under setting [1]. As for `Cc1nc(-c2ccc(S(=O)(=O)N3CCCCCC3)cc2)cs1`, under setting [1], the AC50 was 14.1 µM [rising, single point]. Consider `CCOC(=O)c1cccc(NC(=O)c2cn(-c3cccc(OC)c3)c(=O)c3ccccc23)c1`, for which the AC50 under setting [1] was 11.2 µM [rising, partial curve]. The same measure, in the same setting: the same measure for `Cc1noc(C)c1CCC(=O)N1CCCC(CCC(=O)NCc2ccccc2F)C1` (configuration not stated): 0.158 µM [falling, full curve, poor fit].

The values are drawn from PubChem BioAssay AID1487 (National Center for Advancing Translational Sciences (NCATS), 2009).
